These results are taken from US12447186B2, “Traditional Chinese medicine compound composition with anti-anxiety effect and preparation method and applications thereof” (Chenland Nutritionals Inc., priority 2020, dated 2025).

In this assay the test system is mice. The experiment in a line: Light-dark box test. The settings on record: gavage one month, 5 min, Diazepam 2 mg/kg. The assay is classed as in vivo. Here is the method: After the mice arrived, they were acclimatized for a week to enter the experiment. There were 12 mice in each group.
The normal group mice were gavaged with the same volume of purified water, and the gavage doses of other groups were illustrated in the results table section below. The mice were gavaged every morning at fixed time (9:00) with a gavage volume of 0.1 ml·10 g^−1. the administration lasted for one month, and behavioral assays were performed 1 h after the last gavage.
The light and dark box is composed of an integral box which is divided into two compartments (light area and dark area) of the same size (L×w×H=25 cm×25 cm×30 cm) by a middle gate (6.5 cm×6.5 cm). The light area is illuminated by white light, and the dark area is illuminated by red light. At the beginning of the test, each mouse was placed in the center of the light area facing the partition wall, and the middle gate was removed. Once four claws of one mouse entered the compartment, it was recorded as one entry. Supermaze software was used to record the distance in light area, retention time in light area and number of entries into light area in 5 minutes.

As to `CN1C(=O)CN=C(c2ccccc2)c2cc(Cl)ccc21` [Diazepam], the “Retention time in light area” value is 152.1 ± 6.860.
